Experimental data reported in paper PMC6033357.

By UniProt entry, the sequences of proteins in these tests, tags left out.
UniProt O15379: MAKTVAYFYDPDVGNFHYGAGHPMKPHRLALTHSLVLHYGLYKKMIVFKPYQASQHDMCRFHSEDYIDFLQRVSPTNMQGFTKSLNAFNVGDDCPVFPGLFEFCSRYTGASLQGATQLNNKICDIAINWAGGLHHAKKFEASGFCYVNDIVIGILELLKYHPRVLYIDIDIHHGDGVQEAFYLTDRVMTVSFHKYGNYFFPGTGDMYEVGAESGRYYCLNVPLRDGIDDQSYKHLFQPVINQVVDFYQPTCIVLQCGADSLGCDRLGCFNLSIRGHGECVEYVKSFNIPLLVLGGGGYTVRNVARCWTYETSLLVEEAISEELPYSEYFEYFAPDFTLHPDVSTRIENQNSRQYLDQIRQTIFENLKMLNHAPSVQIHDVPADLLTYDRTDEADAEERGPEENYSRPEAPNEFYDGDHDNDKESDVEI
UniProt Q9Y6Q9: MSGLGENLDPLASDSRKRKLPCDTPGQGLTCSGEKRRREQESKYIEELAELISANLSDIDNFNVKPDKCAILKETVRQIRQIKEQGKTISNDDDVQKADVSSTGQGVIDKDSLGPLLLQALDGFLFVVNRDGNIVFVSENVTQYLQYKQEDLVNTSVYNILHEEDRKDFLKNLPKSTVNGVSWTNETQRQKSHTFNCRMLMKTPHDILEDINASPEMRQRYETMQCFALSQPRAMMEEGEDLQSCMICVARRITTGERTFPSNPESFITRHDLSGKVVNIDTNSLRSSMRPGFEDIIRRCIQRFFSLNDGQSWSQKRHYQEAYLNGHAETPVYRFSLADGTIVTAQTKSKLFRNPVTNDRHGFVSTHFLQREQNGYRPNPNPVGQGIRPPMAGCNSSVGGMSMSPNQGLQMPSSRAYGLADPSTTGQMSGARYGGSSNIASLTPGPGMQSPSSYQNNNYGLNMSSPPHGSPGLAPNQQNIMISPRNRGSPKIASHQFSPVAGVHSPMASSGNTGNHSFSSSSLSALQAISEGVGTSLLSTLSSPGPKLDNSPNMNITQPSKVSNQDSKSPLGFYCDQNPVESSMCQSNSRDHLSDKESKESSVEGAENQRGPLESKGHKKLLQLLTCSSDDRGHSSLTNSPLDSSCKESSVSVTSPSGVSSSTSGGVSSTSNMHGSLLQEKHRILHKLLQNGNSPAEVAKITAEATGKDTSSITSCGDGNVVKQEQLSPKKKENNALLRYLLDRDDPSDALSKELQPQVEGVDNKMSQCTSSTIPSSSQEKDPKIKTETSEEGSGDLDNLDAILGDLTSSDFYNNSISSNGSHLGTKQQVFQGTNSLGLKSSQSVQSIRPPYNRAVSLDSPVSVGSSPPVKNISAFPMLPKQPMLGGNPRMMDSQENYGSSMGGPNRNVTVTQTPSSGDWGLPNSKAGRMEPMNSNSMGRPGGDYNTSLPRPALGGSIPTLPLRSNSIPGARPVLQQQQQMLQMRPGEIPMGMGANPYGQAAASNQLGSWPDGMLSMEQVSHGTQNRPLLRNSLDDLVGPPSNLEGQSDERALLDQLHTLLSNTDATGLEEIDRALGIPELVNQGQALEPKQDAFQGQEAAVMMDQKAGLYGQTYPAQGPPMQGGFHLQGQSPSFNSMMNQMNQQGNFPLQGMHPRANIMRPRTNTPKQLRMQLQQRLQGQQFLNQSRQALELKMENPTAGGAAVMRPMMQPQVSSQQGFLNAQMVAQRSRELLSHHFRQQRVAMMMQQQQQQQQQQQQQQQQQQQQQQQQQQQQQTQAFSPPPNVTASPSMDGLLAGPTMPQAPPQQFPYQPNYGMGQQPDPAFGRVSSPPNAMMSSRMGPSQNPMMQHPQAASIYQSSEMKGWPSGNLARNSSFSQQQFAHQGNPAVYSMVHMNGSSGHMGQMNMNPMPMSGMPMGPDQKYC
UniProt O75376: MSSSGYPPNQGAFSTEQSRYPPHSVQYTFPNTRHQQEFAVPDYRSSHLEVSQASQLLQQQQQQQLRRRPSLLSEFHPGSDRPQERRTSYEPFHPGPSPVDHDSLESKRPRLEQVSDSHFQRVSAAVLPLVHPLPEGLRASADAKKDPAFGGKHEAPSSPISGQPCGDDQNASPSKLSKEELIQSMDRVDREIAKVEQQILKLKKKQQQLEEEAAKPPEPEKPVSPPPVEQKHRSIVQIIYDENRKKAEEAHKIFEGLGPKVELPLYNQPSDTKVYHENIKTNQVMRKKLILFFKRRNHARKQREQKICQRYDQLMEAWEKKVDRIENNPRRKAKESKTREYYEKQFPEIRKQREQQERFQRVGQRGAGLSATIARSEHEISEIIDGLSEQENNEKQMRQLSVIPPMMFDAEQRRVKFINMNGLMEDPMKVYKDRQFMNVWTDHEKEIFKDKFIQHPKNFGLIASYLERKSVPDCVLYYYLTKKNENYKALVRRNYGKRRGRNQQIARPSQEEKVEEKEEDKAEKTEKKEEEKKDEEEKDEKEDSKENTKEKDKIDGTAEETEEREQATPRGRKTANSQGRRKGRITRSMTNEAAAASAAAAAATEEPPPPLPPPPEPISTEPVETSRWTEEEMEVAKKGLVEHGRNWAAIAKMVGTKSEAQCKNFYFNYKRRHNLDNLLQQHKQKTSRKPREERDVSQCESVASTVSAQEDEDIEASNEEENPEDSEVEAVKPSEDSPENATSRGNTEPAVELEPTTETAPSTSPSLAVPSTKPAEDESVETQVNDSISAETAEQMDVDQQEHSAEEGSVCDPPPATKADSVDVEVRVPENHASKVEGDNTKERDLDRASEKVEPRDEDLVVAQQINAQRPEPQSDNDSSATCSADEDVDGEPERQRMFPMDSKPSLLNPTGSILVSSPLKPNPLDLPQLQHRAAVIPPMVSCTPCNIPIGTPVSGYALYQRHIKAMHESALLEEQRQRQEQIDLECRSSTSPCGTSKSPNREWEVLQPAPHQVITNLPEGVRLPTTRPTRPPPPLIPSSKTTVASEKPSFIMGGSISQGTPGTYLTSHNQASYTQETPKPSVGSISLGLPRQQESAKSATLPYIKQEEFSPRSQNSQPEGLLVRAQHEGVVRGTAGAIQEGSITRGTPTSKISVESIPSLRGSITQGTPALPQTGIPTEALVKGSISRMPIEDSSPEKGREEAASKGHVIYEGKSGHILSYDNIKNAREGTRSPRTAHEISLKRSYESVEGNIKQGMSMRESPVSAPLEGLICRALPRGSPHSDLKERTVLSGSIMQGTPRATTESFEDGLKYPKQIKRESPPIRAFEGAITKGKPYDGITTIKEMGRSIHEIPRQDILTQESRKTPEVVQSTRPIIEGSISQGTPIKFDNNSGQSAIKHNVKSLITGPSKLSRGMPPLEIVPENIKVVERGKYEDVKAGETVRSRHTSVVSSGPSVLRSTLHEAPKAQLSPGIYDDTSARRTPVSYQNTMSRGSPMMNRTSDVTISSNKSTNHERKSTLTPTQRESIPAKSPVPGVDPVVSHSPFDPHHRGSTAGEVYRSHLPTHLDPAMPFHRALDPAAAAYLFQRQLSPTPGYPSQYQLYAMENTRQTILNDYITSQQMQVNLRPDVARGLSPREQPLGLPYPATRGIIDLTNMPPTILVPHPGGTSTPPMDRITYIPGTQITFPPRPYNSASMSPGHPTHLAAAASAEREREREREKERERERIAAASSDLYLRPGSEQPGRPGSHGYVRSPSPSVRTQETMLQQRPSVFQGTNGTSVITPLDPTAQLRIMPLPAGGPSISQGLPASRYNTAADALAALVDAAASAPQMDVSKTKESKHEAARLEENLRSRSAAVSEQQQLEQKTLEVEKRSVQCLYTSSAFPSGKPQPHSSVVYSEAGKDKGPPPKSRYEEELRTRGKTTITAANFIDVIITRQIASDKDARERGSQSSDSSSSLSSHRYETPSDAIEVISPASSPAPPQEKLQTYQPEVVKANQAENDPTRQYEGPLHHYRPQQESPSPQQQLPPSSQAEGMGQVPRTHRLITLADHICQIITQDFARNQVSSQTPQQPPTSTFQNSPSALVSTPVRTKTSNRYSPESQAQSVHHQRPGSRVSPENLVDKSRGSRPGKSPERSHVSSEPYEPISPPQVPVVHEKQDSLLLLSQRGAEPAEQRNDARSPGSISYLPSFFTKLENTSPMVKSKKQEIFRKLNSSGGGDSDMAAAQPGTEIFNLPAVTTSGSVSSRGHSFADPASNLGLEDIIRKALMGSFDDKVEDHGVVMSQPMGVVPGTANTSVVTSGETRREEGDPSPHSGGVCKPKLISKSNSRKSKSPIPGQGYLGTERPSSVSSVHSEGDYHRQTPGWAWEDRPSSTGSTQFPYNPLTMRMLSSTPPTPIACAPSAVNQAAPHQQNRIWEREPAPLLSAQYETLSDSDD
UniProt Q9UKL0: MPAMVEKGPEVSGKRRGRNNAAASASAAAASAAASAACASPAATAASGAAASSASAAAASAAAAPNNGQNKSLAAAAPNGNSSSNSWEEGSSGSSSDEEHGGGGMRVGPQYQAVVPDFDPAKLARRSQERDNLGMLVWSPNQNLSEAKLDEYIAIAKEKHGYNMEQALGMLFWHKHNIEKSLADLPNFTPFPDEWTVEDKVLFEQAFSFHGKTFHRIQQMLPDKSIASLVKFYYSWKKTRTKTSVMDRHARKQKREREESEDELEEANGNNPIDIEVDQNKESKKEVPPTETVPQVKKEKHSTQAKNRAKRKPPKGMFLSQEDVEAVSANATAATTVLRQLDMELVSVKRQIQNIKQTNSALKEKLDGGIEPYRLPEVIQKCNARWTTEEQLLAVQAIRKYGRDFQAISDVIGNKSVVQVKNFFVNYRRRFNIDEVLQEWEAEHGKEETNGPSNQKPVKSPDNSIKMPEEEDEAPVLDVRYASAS

T1: Nucleus accumbens-associated protein 1 (NAC1), endogenous (human (endogenous in HeLa, ovarian cancer cell lines and HEK293T)) (UniProt Q96RE7)
T1 sequence: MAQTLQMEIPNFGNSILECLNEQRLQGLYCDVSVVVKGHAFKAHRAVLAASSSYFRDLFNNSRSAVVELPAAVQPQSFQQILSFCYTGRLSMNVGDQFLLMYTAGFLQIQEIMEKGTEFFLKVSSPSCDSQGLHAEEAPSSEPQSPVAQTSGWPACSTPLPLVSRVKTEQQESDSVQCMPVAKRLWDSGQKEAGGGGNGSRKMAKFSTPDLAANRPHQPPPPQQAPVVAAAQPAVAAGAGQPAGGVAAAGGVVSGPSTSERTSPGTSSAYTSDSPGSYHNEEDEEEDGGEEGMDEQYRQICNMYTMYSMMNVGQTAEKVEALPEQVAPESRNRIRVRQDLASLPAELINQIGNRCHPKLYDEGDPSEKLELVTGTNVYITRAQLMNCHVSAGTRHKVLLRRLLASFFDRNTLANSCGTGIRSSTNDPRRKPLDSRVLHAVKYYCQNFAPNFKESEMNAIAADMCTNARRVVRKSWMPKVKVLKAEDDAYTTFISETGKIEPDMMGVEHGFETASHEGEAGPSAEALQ

T2: Nucleus accumbens-associated protein 1 (NAC1), endogenous (human (endogenous in HeLa, ovarian cancer cell lines and HEK293T)), Q96RE7
T2 chain: T1 sequence

B1: Histone deacetylase HDAC4, P56524 1-1084 (enzyme)
chain: MSSQSHPDGLSGRDQPVELLNPARVNHMPSTVDVATALPLQVAPSAVPMDLRLDHQFSLPVAEPALREQQLQQELLALKQKQQIQRQILIAEFQRQHEQLSRQHEAQLHEHIKQQQEMLAMKHQQELLEHQRKLERHRQEQELEKQHREQKLQQLKNKEKGKESAVASTEVKMKLQEFVLNKKKALAHRNLNHCISSDPRYWYGKTQHSSLDQSSPPQSGVSTSYNHPVLGMYDAKDDFPLRKTASEPNLKLRSRLKQKVAERRSSPLLRRKDGPVVTALKKRPLDVTDSACSSAPGSGPSSPNNSSGSVSAENGIAPAVPSIPAETSLAHRLVAREGSAAPLPLYTSPSLPNITLGLPATGPSAGTAGQQDAERLTLPALQQRLSLFPGTHLTPYLSTSPLERDGGAAHSPLLQHMVLLEQPPAQAPLVTGLGALPLHAQSLVGADRVSPSIHKLRQHRPLGRTQSAPLPQNAQALQHLVIQQQHQQFLEKHKQQFQQQQLQMNKIIPKPSEPARQPESHPEETEEELREHQALLDEPYLDRLPGQKEAHAQAGVQVKQEPIESDEEEAEPPREVEPGQRQPSEQELLFRQQALLLEQQRIHQLRNYQASMEAAGIPVSFGGHRPLSRAQSSPASATFPVSVQEPPTKPRFTTGLVYDTLMLKHQCTCGSSSSHPEHAGRIQSIWSRLQETGLRGKCECIRGRKATLEELQTVHSEAHTLLYGTNPLNRQKLDSKKLLGSLASVFVRLPCGGVGVDSDTIWNEVHSAGAARLAVGCVVELVFKVATGELKNGFAVVRPPGHHAEESTPMGFCYFNSVAVAAKLLQQRLSVSKILIVDWDVHHGNGTQQAFYSDPSVLYMSLHRYDDGNFFPGSGAPDEVGTGPGVGFNVNMAFTGGLDPPMGDAEYLAAFRTVVMPIASEFAPDVVLVSSGFDAVEGHPTPLGGYNLSARCFGYLTKQLMGLAGGRIVLALEGGHDLTAICDASEACVSALLGNELDPLPEKVLQQRPNANAVRSMEKVMEIHSKYWRCLQRTTSTAGRSLIEAQTCENEEAETVTAMASLSVGVKPAEKRPDEEPMEEEPPL

Key:
[1] = molecular target: T1, Nucleus accumbens-associated protein 1 (NAC1), endogenous (human (endogenous in HeLa, ovarian cancer cell lines and HEK293T)); assay: affinity purification with mass spectrometry; 1% (v/v) Triton X-100 HeLa lysate fractionated by FPLC on Superdex 200 Increase 10/300 GL; fractions 18 to 20 immunoprecipitated with anti-NAC1 antibody; SDS-PAGE, silver-stained bands excised, LC-MS/MS
[2] = molecular target: T2, Nucleus accumbens-associated protein 1 …; assay: as above; details: remark: other sources report otherwise

Molecule | binding [1] | binding [2]
Histone deacetylase HDAC3 (from UniProt O15379 1-428) (enzyme) | no binding | –
Nuclear receptor coactivator 3 (NCoA3), endogenous (from UniProt Q9Y6Q9 1-1424) | binds | –
Nuclear receptor corepressor 1 (NCoR) (from UniProt O75376 1-2440) | no binding | –
REST corepressor 1 (CoREST) (from UniProt Q9UKL0 1-485) | no binding | –
B1 | – | no binding

These are yes or no findings as the source states them, for the method shown. In cells and extracts the contact can be indirect. Here binding means that the protein was enriched with, or labelled near, the bait; the list need not be complete. No binding means not detected with the bait. For some assays here: Tags and fused reporters may be left off the sequences shown.
